According to article PMC8445599:
No constants are given. Whether binding was seen depends on the method and setting. In cells and extracts the contact can be indirect. Some entries that bind do so weakly or less than the wild type.

Sequences of proteins named here, by UniProt entry; tags and fusion partners are left off. Residues count along the entry.
UniProt P02545, residues 1-646: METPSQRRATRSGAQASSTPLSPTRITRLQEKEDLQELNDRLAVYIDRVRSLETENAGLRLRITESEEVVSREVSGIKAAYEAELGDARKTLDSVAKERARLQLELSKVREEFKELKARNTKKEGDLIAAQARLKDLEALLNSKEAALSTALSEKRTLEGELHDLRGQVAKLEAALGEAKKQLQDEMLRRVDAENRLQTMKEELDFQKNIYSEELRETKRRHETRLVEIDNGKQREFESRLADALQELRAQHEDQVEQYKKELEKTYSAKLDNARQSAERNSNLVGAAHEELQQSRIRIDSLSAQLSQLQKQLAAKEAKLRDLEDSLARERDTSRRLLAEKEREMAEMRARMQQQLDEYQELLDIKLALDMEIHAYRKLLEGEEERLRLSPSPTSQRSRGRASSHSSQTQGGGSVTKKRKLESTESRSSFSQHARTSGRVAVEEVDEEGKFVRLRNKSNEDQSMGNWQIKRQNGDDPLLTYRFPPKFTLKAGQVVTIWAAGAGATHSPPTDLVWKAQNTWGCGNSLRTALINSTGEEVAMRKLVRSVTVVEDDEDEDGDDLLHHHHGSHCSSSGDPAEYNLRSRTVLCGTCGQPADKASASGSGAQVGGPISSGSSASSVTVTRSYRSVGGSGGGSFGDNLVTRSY

What was measured:
[1] = target: lamin A/C (endogenous) (human (endogenous in HeLa)) (UniProt P02545); test: co-IP; endogenous proteins; asynchronous HeLa cells; IP with anti-lamin A/C or anti-RepoMan antibody, western blot
[2] = target: lamin A/C (endogenous) (human (endogenous in HeLa)) (UniProt P02545); test: co-IP; endogenous proteins; HeLa cells arrested in M phase (1 µg/ml nocodazole, 16 h); IP with anti-lamin A/C or anti-RepoMan antibody, western blot
[3] = target: lamin A/C (endogenous) (human (endogenous in HeLa)) (UniProt P02545); test: co-IP; endogenous proteins; HeLa cells arrested at the G1/S boundary (1.5 mM hydroxyurea, 16 h); IP with anti-lamin A/C or anti-RepoMan antibody, western blot

B1: RepoMan (endogenous) (protein, UniProt Q69YH5 1-1023)
chain: MDANSKDKPPETKESAMNNAGNASFILGTGKIVTPQKHAELPPNPCTPDTFKSPLNFSTVTVEQLGITPESFVRNSAGKSSSYLKKCRRRSAVGARGSPETNHLIRFIARQQNIKNARKSPLAQDSPSQGSPALYRNVNTLRERISAFQSAFHSIKENEKMTGCLEFSEAGKESEMTDLTRKEGLSACQQSGFPAVLSSKRRRISYQRDSDENLTDAEGKVIGLQIFNIDTDRACAVETSVDLSEISSKLGSTQSGFLVEESLPLSELTETSNALKVADCVVGKGSSDAVSPDTFTAEVSSDAVPDVRSPATPACRRDLPTPKTFVLRSVLKKPSVKMCLESLQEHCNNLYDDDGTHPSLISNLPNCCKEKEAEDEENFEAPAFLNMRKRKRVTFGEDLSPEVFDESLPANTPLRKGGTPVCKKDFSGLSSLLLEQSPVPEPLPQPDFDDKGENLENIEPLQVSFAVLSSPNKSSISETLSGTDTFSSSNNHEKISSPKVGRITRTSNRRNQLVSVVEESVCNLLNTEVQPCKEKKINRRKSQETKCTKRALPKKSQVLKSCRKKKGKGKKSVQKSLYGERDIASKKPLLSPIPELPEVPEMTPSIPSIRRLGSGYFSSNGKLEEVKTPKNPVKRKDLLRHDPDLHMHQGYDKYDVSEFCSYIKSSSSLGNATSDEDPNTNIMNINENKNIPKAKNKSESENEPKAGTDSPVSCASVTEERVASDSPKPALTLQQGQEFSAGGQNAENLCQFFKISPDLNIKCERKDDFLGAAEGKLQCNRLMPNSQKDCHCLGDVLIENTKESKSQSEDLGRKPMESSSVVSCRDRKDRRRSMCYSDGRSLHLEKNGNHTPSSSVGSSVEISLENSELFKDLSDAIEQTFQRRNSETKVRRSTRLQKDLENEGLVWISLPLPSTSQKAKRRTICTFDSSGFESMSPIKETVSSRQKPQMAPPVSDPENSQGPAAGSSDEPGKRRKSFCISTLANTKATSQFKGYRRRSSLNGKGESSLTALERIEHNGERKQ
With B1 the binding [1] was “binds weakly”, the binding [2] was “binds” and the binding [3] was “binds weakly”.
